# In article doi:10.1101/2025.10.31.685692:
# No constants are given. Whether binding was seen depends on the method and setting. In cells and extracts the contact can be indirect. Here binding means that the protein was enriched with, or labelled near, the bait; the list need not be complete. Sequences can lack the tags named with a protein.
# Target: T1, FLAG-HA-tagged ZMYND11 (endogenous, Zmynd11-FH knock-in mouse) (mouse (endogenous in brain tissue)) (UniProt Q8R5C8)
# T1 sequence: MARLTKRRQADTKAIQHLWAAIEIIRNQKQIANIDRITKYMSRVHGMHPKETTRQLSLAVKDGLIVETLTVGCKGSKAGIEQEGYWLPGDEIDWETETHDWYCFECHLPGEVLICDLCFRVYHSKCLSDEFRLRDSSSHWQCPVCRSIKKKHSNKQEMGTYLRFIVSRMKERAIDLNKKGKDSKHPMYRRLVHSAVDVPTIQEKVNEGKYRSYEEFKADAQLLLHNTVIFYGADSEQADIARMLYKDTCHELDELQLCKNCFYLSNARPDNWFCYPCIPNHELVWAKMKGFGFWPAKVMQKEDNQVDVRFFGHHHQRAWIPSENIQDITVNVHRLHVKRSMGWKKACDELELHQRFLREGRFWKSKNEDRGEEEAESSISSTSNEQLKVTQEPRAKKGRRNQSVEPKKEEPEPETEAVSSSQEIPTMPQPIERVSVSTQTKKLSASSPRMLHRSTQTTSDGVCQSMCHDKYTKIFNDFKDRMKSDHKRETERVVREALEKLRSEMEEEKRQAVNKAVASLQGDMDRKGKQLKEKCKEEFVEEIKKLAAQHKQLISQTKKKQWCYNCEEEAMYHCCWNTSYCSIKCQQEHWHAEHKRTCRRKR
# Experiment: affinity purification with mass spectrometry; anti-FLAG (anti-DYKDDDK magnetic agarose) immunoprecipitation of endogenous FLAG-HA-ZMYND11 from nuclear lysates (420 mM NaCl extract plus MNase-digested chromatin, diluted to 150 mM NaCl) of Zmynd11-FH whole brain; washes NE1 + 250 mM NaCl; elution with 3XFLAG peptide; LC/MS-MS; wild-type littermates as control
binder,measurement,value
"ZBTB38, mouse brain (protein, UniProt Q3LR78 1-1197) MTVMSLSRDLKDDFHSDTVLSILNEQRIRGILCDVTIIVEDTKFKAHSNVLAASSLYFKNIFWSHTICISSHVLELDDLKAEVFTEILNYIYSSTVVVKRQETVTDLAAAGKKLGISFLEDLSDRNFSNSPGPYVVCITEKGVVKEEKNEKRHEEPAVTNGPRITNAFSIIETENSNNMFSPLDLRASFKKVSDSMRTASLCQERASVCHEVEPVRTLAEHSYAVSSITEAYRSQPPREQDSSSSAKTGKETGDALATKAKPCRKPKPQTQDSDSTTENMPLSLVTCPEVNQERSPQPAPDLSHSEPPSNEGDIHFPREDENQPSDAPGPGAAEVPPLVYNCSCCSKSFDSSTLLSAHMQLHKPTQEPFVCKYCNKQFTTLNRLDRHEQICMRSSHVPIPGGNPPFLENYPTIGQDGTSFRSPESLGPENRIGELSSAGSALSDADHMVKFVNGQMLYSCIVCKRSYVTLSSLRRHANVHSWRRTYPCHYCNKVFALAEYRTRHEIWHTGERRYQCIFCLETFMTYYILKNHQKSFHAIDHRLSINKKTANGGLKPTVYPYKLYRLLPMRCKRAPYKSYRNSSYVSAQGSSQRGESAPDTFIVPNLQSSEMPTLDFQDGRNTLPSSPAVPVETPSRQGAPTSARVKNAEGIKWRKQAVKTNLVDNFDSTEVSVSSTGNTVSATLQTEPACVSSVGKGSEHSASVISYSGSVPSVIVHSSQFSSVIKHSNTIASLTNSNHKSPSQPVVSPSLIKDSKPETDKASKPASRPKSIKEKKKTAPSNRGEITEEAKYIADHGGSSGKTTNAEETSKIETYIAKPALPGTSTNSNVAPLCQITVKIGNEAIVKRHILGSKLFYKRGRKPKYQMQEETLPRENDPETPGDSPLGLCQAECVEMSEAFDEVSDQDSTDKPWRPYYNYKPKKKSKQLRKMRKVKWRKERRSRSPVGRCRYPAELDRAEVKLPPDKAFEEEEEEEENKEMPKLQCELCDGCPDGAAGAGAEGKPHQHLTSKPYICELCAKQFQSSSTLKMHMRCHTGEKPYQCKTCGRCFSVQGNLQKHERIHLGVKEFICQYCNKAFTLNETLKIHERIHTGEKRYHCQFCFQGFLYLSTKRNHERRHIREHDGKGFACFQCPKICKTAAALRMHQKKHLYKTLPKQEETGDTCHENADLLESQLCTDSEDSEQKDDIKAFAENVL",binding,binds
